PubChem BioAssay AID1159579 | Peter MacCallum Cancer Centre, 2015
The whole screen tested about 2,000 reagents; below is a random part of them. In the full data, 549 (27%) were called active. 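Some migration ratios are negative; siRNAs with too few cells are inactive whatever their migration ratio.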 Reagents against one gene are numbered here. Not given: the time to read-out.

Assay: 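Follow-up screen seeking modulators of motility in lymphatic endothelial cells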 (follow-up of hits)
Cells: human dermal lymphatic endothelial cells
Reagents: single siRNA against human genes, 25 nM
Read-out: 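High content images of wound closure area and cell nuclei counts, each the average of two wells, expressed against mock transfection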
Reading the numbers: migration relative to mock: higher = more migration into the scratch; mean nuclei count: higher = more cells remaining
Active means: 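a ratio of at most 0.6 or at least 1.3 marks altered migration and an active call; a mean nuclei count under 3300 forces an inactive call regardless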
Meaning of the calls: active = migration changed (impaired or accelerated); inactive = no migration change, or too few cells

For MIEF1 (mitochondrial elongation factor 1) #1, the values are migration relative to mock 0.36; migration and cell number class migration reduced; mean nuclei count 5055; active.
Silencing of MIEF1 (mitochondrial elongation factor 1) #2 came out at: migration relative to mock 0.6; migration and cell number class migration reduced; mean nuclei count 5698; active.
For MIEF1 (mitochondrial elongation factor 1) #3, the entry reads migration relative to mock 0.64; migration and cell number class no change in migration or cell number; mean nuclei count 5134; inactive.
With knock-down of MIEF1 (mitochondrial elongation factor 1) #4, the record shows migration relative to mock 1.04; migration and cell number class no change in migration or cell number; mean nuclei count 5142; inactive.
After knock-down of TNFSF8 (TNF superfamily member 8) #1 the results were migration relative to mock 1.04; migration and cell number class no change in migration or cell number; mean nuclei count 6424; inactive.
For TNFSF8 (TNF superfamily member 8) #2 the deposit lists migration relative to mock 0.21; migration and cell number class migration reduced; mean nuclei count 3312; active.
TNFSF8 (TNF superfamily member 8) #3 scored migration relative to mock 0.57; migration and cell number class migration reduced; mean nuclei count 5171; active.
Depletion of TNFSF8 (TNF superfamily member 8) #4 resulted in: migration relative to mock 1.06; migration and cell number class no change in migration or cell number; mean nuclei count 6236; inactive.
Against CSGALNACT1 (chondroitin sulfate N-acetylgalactosaminyltransferase 1) #1, the values are migration relative to mock 0.82; migration and cell number class no change in migration or cell number; mean nuclei count 6540; inactive.
CSGALNACT1 (chondroitin sulfate N-acetylgalactosaminyltransferase 1) #2 scored migration relative to mock 0.86; migration and cell number class no change in migration or cell number; mean nuclei count 6126; inactive.
After knock-down of CSGALNACT1 (chondroitin sulfate N-acetylgalactosaminyltransferase 1) #3, the screen gave migration relative to mock 0.51; migration and cell number class migration reduced; mean nuclei count 6112; active.
With knock-down of CSGALNACT1 (chondroitin sulfate N-acetylgalactosaminyltransferase 1) #4 the results were migration relative to mock 1.15; migration and cell number class no change in migration or cell number; mean nuclei count 6938; inactive.
STRC (stereocilin) #1 showed migration relative to mock 0.23; migration and cell number class migration reduced; mean nuclei count 5274; active.
After knock-down of STRC (stereocilin) #2 the results were migration relative to mock 0.58; migration and cell number class migration reduced; mean nuclei count 5308; active.
Silencing of STRC (stereocilin) #3 resulted in: migration relative to mock 1.25; migration and cell number class no change in migration or cell number; mean nuclei count 5582; inactive.
Against STRC (stereocilin) #4, the entry reads migration relative to mock 0.74; migration and cell number class no change in migration or cell number; mean nuclei count 4488; inactive.
CAMTA2 (calmodulin binding transcription activator 2) #1 gave migration relative to mock 0.9; migration and cell number class no change in migration or cell number; mean nuclei count 4470; inactive.
CAMTA2 (calmodulin binding transcription activator 2) #2 showed migration relative to mock 1.21; migration and cell number class no change in migration or cell number; mean nuclei count 4244; inactive.
CAMTA2 (calmodulin binding transcription activator 2) #3 gave migration relative to mock 1.06; migration and cell number class no change in migration or cell number; mean nuclei count 4962; inactive.
With knock-down of CAMTA2 (calmodulin binding transcription activator 2) #4, the screen gave migration relative to mock 0.86; migration and cell number class no change in migration or cell number; mean nuclei count 5344; inactive.
Knock-down of CSNK1G3 (casein kinase 1 gamma 3) #1 gave: migration relative to mock 0.28; migration and cell number class migration reduced; mean nuclei count 4702; active.
CSNK1G3 (casein kinase 1 gamma 3) #2 showed migration relative to mock 0.91; migration and cell number class no change in migration or cell number; mean nuclei count 6058; inactive.
After knock-down of CSNK1G3 (casein kinase 1 gamma 3) #3, the screen gave migration relative to mock 1.15; migration and cell number class no change in migration or cell number; mean nuclei count 6161; inactive.
CSNK1G3 (casein kinase 1 gamma 3) #4 gave migration relative to mock 0.6; migration and cell number class migration reduced; mean nuclei count 5184; active.
Silencing of CIB1 (calcium and integrin binding 1) #1 came out at: migration relative to mock 0.18; migration and cell number class migration reduced; mean nuclei count 5544; active.
Against CIB1 (calcium and integrin binding 1) #2, the values are migration relative to mock 0.63; migration and cell number class no change in migration or cell number; mean nuclei count 5892; inactive.
CIB1 (calcium and integrin binding 1) #3 gave migration relative to mock 0.92; migration and cell number class no change in migration or cell number; mean nuclei count 4697; inactive.
After knock-down of CIB1 (calcium and integrin binding 1) #4 the results were migration relative to mock 0.61; migration and cell number class no change in migration or cell number; mean nuclei count 4666; inactive.
After knock-down of RTKN (rhotekin) #1, the record shows migration relative to mock 0.48; migration and cell number class migration reduced; mean nuclei count 6184; active.
Depletion of RTKN (rhotekin) #2 resulted in: migration relative to mock 0.6; migration and cell number class migration reduced; mean nuclei count 5324; active.
Against RTKN (rhotekin) #3, the entry reads migration relative to mock 0.74; migration and cell number class no change in migration or cell number; mean nuclei count 6182; inactive.
With knock-down of RTKN (rhotekin) #4, the screen gave migration relative to mock 0.89; migration and cell number class no change in migration or cell number; mean nuclei count 5836; inactive.
IGLL1 (immunoglobulin lambda like polypeptide 1) #1 scored migration relative to mock 0.82; migration and cell number class no change in migration or cell number; mean nuclei count 6392; inactive.
Knock-down of IGLL1 (immunoglobulin lambda like polypeptide 1) #2 gave: migration relative to mock 0.3; migration and cell number class too few cells; migration not scored; mean nuclei count 2788; inactive.
Silencing of IGLL1 (immunoglobulin lambda like polypeptide 1) #3 resulted in: migration relative to mock 0.74; migration and cell number class no change in migration or cell number; mean nuclei count 4006; inactive.
Depletion of IGLL1 (immunoglobulin lambda like polypeptide 1) #4 resulted in: migration relative to mock 0.58; migration and cell number class migration reduced; mean nuclei count 4834; active.

Limited to “mean nuclei count”, for 2 of the entries above:
CSNK1G3 (casein kinase 1 gamma 3) #3	6161
CSNK1G3 (casein kinase 1 gamma 3) #4	5184
